PubChem BioAssay AID686943, Drosophila RNAi Screening Center, 2013
Screen: 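Search across the genome for regulators of signalling from receptor tyrosine kinase to ERK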 (primary screen). Cell system: Drosophila S2R+ haemocyte-like cells expressing YFP-tagged ERK (Rolled). Reagents: long dsRNA against Drosophila genes. Conditions: insulin stimulation versus unstimulated cells; dose and duration not given. Detection: 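Antibody staining for doubly phosphorylated ERK divided by ERK-YFP signal, as plate z-scores, in insulin-treated and untreated cells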. Direction: replicate 1, z-score of dpERK with insulin and replicate 2, z-score of dpERK with insulin: higher = more active ERK per ERK-YFP after insulin; replicate 1, z-score of dpERK under basal conditions: higher = more basal active ERK per ERK-YFP; replicate 1, z-score of ERK-YFP with insulin: higher = more YFP-tagged ERK signal.
The deposit covers about 23,000 reagents; this is an unselected part of those that have a named target and a result. 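Extra replicates exist only for a retested subset of genes; insulin dose and duration not given; both raised and lowered dpERK matter.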 No sequences are given here. Not stated in the record: the amount of reagent, the time to read-out.

gene | amplicon | replicate 1, z-score of dpERK with insulin | replicate 2, z-score of dpERK with insulin | replicate 1, z-score of dpERK under basal conditions | replicate 1, z-score of ERK-YFP with insulin
CG15927 | DRSC19742 | -0.46 | 0.02 | 0.85 | 0.71
CG31199 | DRSC15284 | 0.32 | -0.08 | -0.02 | 0.27
KaiR1D | DRSC15516 | 1 | -0.11 | 0.19 | -0.66
Mur18B | DRSC20063 | -0.15 | 0.07 | -0.61 | 0.18
Rpn8 | DRSC04624 | -2.55 | -4.12 | -4.77 | -1.21
CG17959 | DRSC18142 | -0.09 | -0.26 | -0.23 | -0.67
CG31633 | DRSC02275 | 0.21 | 0.46 | 1.91 | 0.57
Sr-CII | DRSC07557 | -0.13 | 0.49 | 0.45 | 0.11
CG5214 | DRSC15739 | 0.19 | 0.54 | 0.43 | 0.21
CG5214 | DRSC22842 | -0.7 | 0.09 | 0.4 | -0.22
mRpS9 | DRSC12645 | -0.24 | -0.79 | -1.46 | 0.35
mRpS9 | DRSC15456 | -0.64 | -1.1 | 0.36 | 0.82
spin | DRSC07176 | -0.03 | 0.46 | 0.23 | 0.08
spin | DRSC22271 | 4.61 | -3.77 | 0.41 | 0.48
osa | DRSC17022 | 1.81 | 1.05 | -1.09 | 1.51
Dpy-30L2 | DRSC08205 | 0.16 | 0.49 | -0.1 | 0.38
CCDC53 | DRSC03056 | -0.01 | 0.21 | 0.04 | -0.71
CG15876 | DRSC08484 | 0.54 | 0.75 | 0.62 | -0.19
CG8372 | DRSC03086 | -0.31 | -0.18 | -0.13 | 1.14
CG34458 | DRSC06925 | 0.85 | 0.75 | -0.22 | 0.42
row | DRSC07076 | -1.15 | -0.64 | -1.16 | 1.6
row | DRSC07077 | -0.21 | -0.75 | -2.64 | -0.21
Spn77Ba | DRSC10693 | 0.09 | -0.12 | 0.47 | -2.34

An excerpt from above, showing only “replicate 1, z-score of ERK-YFP with insulin”.
mRpS9 [DRSC12645]: 0.35
mRpS9 [DRSC15456]: 0.82
spin [DRSC07176]: 0.08
